Results: publication PMC8501957
Results are given in words; binding and its absence hold for the method and conditions named. For part of these data: Binding can be weak; no strength is given. Sequences can lack the tags named with a protein.

T1: MvaT 1-62-His (P. aeruginosa) (UniProt Q9HW86)
T1 sequence: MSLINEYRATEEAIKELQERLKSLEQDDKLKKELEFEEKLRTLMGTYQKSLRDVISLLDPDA

T2: MvaT 79-124-His (P. aeruginosa) (UniProt Q9HW86)
T2 sequence: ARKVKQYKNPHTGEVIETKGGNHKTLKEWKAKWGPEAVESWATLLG


How the values were obtained:
[1] = target: T1, MvaT 1-62-His (P. aeruginosa); test: pull-down; His-tagged MvaT fragment (40 uM) and gp4 (40 uM) on High-Density Nickel Agarose; 100 mM NaCl, 10 mM Tris-HCl pH 7.2, 50 mM imidazole, 20 mM MgCl2; six washes, elution with 1.5 M imidazole, tricine gel; both purified
[2] = target: T2, MvaT 79-124-His (P. aeruginosa); test: as above
[3] = target: gp4 of Pseudomonas phage LUZ24 (Pseudomonas phage LUZ24); test: NMR titration; 15N gp4 titrated with unlabelled MvaT2 (gp4:MvaT 1.2:1) or unlabelled DBD (gp4:DBD up to 1:3); HSQC spectra; both purified

Molecule | binding [1] | binding [2] | binding [3]
gp4 of Pseudomonas phage LUZ24 | binds | no binding (tested: 40 uM each) | 
ARKVKQYKNPHTGEVIETKGGNHKTLKEWKAKWGPEAVESWATLLG (domain or fragment, UniProt Q9HW86 79-124) [MvaT 79-124-His] |  |  | no binding (tested: molar ratio of gp4:DBD of 1:3)
